Measurements reported in the supplement of paper PMC10849652.
This is one part of the list.

Protein sequences, listed by entry. Tags and fused reporters are not part of them. Lines headed by an entry give the natural chain unless they say otherwise; changes in a name come on top.
UniProt Q99808: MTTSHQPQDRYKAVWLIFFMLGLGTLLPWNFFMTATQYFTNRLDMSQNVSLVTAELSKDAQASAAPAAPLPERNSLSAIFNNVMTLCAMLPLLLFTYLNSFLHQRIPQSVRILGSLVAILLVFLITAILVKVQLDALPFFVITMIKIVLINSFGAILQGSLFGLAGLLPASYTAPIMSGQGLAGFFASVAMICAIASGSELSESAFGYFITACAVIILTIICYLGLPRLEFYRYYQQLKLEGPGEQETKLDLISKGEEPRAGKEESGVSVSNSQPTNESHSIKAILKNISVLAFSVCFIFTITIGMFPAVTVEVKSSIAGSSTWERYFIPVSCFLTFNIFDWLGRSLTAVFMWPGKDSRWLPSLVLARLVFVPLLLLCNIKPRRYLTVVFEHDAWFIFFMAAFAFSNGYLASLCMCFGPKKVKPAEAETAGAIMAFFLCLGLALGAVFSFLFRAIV
UniProt P05141: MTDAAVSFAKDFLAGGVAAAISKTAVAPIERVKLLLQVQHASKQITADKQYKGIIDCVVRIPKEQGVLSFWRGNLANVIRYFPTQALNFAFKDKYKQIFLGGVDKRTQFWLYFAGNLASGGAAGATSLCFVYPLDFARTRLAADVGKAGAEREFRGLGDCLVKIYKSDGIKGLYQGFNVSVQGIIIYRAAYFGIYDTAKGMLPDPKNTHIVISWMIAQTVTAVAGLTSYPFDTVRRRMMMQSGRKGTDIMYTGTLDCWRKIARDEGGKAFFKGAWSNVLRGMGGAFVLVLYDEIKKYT
UniProt P48029: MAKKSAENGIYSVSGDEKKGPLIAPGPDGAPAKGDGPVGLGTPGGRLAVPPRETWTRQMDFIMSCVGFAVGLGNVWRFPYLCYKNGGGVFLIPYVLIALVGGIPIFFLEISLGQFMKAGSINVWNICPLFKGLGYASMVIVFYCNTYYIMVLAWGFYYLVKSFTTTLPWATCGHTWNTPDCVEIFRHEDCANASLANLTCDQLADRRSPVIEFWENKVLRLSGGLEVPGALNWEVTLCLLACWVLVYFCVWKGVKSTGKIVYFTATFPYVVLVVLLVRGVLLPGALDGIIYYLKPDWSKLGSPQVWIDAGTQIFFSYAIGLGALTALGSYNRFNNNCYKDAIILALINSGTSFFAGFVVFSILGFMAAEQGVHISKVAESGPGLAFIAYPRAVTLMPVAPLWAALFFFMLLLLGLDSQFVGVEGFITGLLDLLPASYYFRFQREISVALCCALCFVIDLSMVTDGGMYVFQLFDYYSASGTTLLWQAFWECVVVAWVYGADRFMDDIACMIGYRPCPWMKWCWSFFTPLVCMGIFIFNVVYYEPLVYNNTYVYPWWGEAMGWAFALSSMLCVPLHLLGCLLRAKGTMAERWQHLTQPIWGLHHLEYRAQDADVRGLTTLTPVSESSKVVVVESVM
UniProt Q14542: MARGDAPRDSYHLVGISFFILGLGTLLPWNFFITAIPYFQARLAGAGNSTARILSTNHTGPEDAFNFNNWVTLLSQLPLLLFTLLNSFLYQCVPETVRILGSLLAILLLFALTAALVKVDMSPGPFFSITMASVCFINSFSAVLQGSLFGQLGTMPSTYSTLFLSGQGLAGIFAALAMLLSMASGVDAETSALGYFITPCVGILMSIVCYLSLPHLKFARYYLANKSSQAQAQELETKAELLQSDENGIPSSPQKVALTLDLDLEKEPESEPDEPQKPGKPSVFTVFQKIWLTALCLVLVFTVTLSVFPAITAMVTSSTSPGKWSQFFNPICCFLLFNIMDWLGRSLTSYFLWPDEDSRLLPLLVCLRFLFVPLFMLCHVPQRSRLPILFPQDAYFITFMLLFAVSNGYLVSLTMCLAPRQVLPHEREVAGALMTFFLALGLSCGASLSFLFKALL
UniProt O00400: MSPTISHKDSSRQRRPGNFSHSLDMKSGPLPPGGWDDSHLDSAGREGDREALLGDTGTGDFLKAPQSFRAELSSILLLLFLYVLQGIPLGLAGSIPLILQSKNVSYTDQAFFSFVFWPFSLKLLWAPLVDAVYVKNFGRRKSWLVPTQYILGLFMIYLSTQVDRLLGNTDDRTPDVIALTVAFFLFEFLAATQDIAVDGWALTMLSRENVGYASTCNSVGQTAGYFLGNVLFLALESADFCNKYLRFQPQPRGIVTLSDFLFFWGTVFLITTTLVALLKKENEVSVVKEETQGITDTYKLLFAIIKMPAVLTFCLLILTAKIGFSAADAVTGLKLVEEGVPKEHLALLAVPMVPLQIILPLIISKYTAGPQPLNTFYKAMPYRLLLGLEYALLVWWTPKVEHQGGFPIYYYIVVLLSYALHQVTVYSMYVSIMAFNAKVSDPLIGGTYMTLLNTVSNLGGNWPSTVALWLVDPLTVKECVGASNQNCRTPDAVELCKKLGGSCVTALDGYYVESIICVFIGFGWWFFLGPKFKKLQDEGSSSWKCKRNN
UniProt Q9BQT8: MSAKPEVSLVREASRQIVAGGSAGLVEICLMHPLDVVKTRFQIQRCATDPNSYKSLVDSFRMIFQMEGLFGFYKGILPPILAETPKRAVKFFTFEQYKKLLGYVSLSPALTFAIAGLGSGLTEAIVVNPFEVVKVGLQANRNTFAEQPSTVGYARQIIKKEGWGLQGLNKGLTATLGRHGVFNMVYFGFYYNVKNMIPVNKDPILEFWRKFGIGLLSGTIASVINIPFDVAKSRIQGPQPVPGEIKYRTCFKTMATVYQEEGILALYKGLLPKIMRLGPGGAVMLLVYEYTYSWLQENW
UniProt P12236: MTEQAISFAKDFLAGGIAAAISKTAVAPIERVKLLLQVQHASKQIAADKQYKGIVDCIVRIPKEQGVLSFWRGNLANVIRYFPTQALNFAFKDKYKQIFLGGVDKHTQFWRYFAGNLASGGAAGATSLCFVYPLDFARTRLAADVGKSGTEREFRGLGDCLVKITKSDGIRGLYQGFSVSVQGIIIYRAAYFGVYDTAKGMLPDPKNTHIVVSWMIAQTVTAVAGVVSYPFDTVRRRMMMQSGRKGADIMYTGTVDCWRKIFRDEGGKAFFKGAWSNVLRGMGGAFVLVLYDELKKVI
UniProt P12235: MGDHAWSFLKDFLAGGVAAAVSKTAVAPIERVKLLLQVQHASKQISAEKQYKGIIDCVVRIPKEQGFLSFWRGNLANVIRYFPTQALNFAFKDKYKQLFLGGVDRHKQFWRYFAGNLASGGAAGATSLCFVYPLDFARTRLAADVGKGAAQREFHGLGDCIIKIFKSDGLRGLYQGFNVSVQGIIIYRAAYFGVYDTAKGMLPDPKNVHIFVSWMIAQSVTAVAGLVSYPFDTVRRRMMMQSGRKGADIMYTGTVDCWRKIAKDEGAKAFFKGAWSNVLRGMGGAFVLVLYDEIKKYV
UniProt P30825: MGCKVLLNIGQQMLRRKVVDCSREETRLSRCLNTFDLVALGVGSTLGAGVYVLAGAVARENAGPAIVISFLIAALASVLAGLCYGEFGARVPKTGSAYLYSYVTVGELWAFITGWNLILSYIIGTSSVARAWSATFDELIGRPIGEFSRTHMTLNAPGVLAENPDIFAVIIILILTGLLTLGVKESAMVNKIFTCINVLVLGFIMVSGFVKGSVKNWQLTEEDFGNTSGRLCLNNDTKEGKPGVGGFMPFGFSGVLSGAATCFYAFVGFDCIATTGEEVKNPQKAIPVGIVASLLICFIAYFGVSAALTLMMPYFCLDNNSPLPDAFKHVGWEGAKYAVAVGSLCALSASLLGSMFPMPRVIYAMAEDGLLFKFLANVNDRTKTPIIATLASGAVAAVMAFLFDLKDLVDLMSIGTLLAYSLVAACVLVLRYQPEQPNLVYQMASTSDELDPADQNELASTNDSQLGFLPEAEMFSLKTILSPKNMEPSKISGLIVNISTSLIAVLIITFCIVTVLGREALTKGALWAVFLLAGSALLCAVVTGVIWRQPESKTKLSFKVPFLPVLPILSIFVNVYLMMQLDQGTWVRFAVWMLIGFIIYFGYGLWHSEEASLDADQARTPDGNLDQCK
UniProt Q9Y619: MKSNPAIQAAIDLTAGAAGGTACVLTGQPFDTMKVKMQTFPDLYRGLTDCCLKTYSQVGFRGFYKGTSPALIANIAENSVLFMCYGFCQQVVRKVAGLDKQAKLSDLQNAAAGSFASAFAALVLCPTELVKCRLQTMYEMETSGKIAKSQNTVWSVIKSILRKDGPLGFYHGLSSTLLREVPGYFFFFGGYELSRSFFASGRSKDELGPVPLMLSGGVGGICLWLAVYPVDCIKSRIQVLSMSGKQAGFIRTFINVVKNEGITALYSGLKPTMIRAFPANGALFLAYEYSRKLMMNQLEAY
UniProt Q02978: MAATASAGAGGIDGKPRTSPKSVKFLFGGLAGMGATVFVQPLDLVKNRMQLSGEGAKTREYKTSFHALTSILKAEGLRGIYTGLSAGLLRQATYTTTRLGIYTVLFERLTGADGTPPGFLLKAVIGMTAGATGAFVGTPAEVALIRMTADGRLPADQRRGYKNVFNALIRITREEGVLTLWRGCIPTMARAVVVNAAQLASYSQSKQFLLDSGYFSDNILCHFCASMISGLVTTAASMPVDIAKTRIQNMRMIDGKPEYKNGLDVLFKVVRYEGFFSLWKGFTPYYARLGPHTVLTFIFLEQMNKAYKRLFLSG
UniProt P16260: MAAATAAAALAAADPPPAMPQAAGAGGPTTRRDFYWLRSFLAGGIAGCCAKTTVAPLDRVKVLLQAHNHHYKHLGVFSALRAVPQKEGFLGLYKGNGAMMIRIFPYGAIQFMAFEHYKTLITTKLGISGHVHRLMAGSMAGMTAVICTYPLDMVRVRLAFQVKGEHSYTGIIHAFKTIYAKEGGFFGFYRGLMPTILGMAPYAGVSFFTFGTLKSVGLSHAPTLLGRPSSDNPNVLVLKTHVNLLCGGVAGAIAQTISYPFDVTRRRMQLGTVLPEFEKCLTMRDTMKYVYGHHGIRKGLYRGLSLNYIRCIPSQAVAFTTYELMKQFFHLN
UniProt Q9HBR0: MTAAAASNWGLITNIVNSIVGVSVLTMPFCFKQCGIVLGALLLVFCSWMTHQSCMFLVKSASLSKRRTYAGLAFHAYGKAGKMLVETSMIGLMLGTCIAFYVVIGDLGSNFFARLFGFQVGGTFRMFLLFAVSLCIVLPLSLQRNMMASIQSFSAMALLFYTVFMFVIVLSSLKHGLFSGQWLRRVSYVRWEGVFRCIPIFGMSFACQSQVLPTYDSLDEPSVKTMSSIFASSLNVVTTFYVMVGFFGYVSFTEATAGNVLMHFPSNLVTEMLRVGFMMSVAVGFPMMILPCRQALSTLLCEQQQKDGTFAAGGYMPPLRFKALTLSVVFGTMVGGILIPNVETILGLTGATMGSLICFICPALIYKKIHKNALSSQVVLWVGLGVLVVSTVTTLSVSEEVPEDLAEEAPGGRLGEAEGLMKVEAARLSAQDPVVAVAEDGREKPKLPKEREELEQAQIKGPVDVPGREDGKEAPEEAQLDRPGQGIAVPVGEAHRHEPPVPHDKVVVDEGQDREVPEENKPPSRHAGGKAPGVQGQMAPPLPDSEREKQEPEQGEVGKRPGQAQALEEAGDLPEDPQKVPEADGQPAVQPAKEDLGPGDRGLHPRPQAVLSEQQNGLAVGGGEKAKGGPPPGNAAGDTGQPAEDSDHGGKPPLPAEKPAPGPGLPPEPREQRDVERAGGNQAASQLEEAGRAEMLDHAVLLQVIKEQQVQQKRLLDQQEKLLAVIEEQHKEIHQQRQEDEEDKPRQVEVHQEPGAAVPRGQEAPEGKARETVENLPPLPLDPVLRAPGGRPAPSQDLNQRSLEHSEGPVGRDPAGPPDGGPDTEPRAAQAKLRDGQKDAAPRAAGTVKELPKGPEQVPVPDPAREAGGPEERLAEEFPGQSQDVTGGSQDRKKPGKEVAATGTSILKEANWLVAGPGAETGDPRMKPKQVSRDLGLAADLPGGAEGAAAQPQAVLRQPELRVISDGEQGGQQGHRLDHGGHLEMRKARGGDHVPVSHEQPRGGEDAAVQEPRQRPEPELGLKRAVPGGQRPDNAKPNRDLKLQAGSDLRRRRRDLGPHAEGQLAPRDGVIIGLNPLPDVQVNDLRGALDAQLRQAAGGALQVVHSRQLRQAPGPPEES
UniProt P41440: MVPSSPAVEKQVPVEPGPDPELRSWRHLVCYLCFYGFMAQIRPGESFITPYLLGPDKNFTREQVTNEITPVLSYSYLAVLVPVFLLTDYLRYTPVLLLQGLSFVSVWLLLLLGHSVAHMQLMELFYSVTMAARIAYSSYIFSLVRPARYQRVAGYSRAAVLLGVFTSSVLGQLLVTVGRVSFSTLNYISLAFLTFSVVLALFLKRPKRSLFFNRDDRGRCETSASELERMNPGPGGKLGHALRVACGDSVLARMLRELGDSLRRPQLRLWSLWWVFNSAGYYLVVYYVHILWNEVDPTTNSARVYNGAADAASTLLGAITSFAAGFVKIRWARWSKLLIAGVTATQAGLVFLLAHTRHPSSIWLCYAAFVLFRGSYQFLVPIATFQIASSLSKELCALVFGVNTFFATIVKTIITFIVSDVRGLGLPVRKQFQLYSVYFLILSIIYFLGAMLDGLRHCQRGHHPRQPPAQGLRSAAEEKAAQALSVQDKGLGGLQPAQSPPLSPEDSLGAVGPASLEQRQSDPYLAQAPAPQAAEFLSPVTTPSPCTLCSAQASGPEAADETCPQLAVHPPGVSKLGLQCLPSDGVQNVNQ

Assays:
Assay in all cases: log2 fold change, soluble protein after heating vs DMSO (PISA); higher = thermal stabilisation; K562 cells, 10 uM, 30 min; active = over 0.2 and 3.5 SD of the protein, either way, in both replicates (recomputed)
[1] = compound: CC1=C(C=C(C=C1)NC(=O)C2=CC(=CC=C2)C(C)(C)C#N)NC3=CC4=C(C=C3)N=CN(C4=O)C
Procedure, shortened: (§1)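 Thermal stability values are relative to control samples and come from duplicates. They are expressed as log2 fold changes. For measurement, K562 cells (2×10^6 cells/mL) received 10 μM compound for 30 min, and aliquots were heated for 3 min over 48°C-58°C, pooled, and extracted at 4°C in PBS with 0.5% NP-40. Soluble protein, the supernatant after 21,000xg for 90 min, was quantified by TMTpro 16plex LC-MS/MS with equalised channel sums.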

[2] = compound: CC1=C(C=C(C=C1)NC(=O)C2=CC(=CC=C2)N(C)C)NC(=O)C3=CC=C(C=C3)O
Procedure, shortened: as §1

[3] = compound: CC1=CC=C(C=C1)SC2=C3C=C(SC3=CN=C2)C(=O)N
Procedure, shortened: as §1

[4] = compound: CC1=NC(=CC=C1)C2=C(N=C(N2)C(C)(C)C)C3=CC4=NC=CN=C4C=C3
Procedure, shortened: as §1

Nexturastat A = compound: CCCCN(Cc1ccc(C(=O)NO)cc1)C(=O)Nc1ccccc1 [Nexturastat A]
Procedure, shortened: as §1

vemurafenib = compound: CCCS(=O)(=O)Nc1ccc(F)c(C(=O)c2c[nH]c3ncc(-c4ccc(Cl)cc4)cc23)c1F [vemurafenib]
Procedure, shortened: as §1

[5] = compound: CCCS(=O)(=O)Nc1ccc(F)c(C(=O)c2c[nH]c3ncc(Cl)cc23)c1F
Procedure, shortened: as §1

[6] = compound: CCCc1cc(C)[nH]c(=O)c1CNC(=O)c1cc(-c2ccnc(N3CCN(C)CC3)c2)cc2c1cnn2C(C)C
Procedure, shortened: as §1

givinostat = compound: CCN(CC)Cc1ccc2cc(COC(=O)Nc3ccc(C(=O)NO)cc3)ccc2c1 [givinostat]
Procedure, shortened: as §1

barasertib = compound: CCN(CCCOc1ccc2c(Nc3cc(CC(=O)Nc4cccc(F)c4)[nH]n3)ncnc2c1)CCOP(=O)(O)O [barasertib]
Procedure, shortened: as §1

[7] = compound: CC[C@@H]1C(=O)N(C)c2cnc(Nc3ccc(C(=O)NC4CCN(C)CC4)cc3OC)nc2N1C1CCCC1
Procedure, shortened: as §1

volasertib = compound: CC[C@@H]1C(=O)N(C)c2cnc(Nc3ccc(C(=O)N[C@H]4CC[C@H](N5CCN(CC6CC6)CC5)CC4)cc3OC)nc2N1C(C)C [volasertib]
Procedure, shortened: as §1

[8] = compound: CC[C@H](C)N1C=C(C2=C(C=C(C=C21)C3=CN=C(C=C3)N4CCNCC4)C(=O)NCC5=C(C=C(NC5=O)C)C)C
Procedure, shortened: as §1

epoxomicin = compound: CC[C@H](C)[C@@H](C(=O)N[C@@H]([C@@H](C)O)C(=O)N[C@@H](CC(C)C)C(=O)[C@]1(CO1)C)NC(=O)[C@H]([C@@H](C)CC)N(C)C(=O)C [epoxomicin]
Procedure, shortened: as §1

[9] = compound: CCn1c(C(=O)N(C2CC2)C2CC2)cc2c3c(ncn3C)c(Nc3cc(C)n(C)n3)nc21
Procedure, shortened: as §1

[10] = compound: CCn1cc(-c2ccnc3[nH]c(-c4cccc(CN(C)C)c4)cc23)c(-c2ccc(NC(=O)N(C)C)cc2)n1
Procedure, shortened: as §1

[11] = compound: CN(C)CC(=O)Nc1ccc2[nH]c(=O)c3ccccc3c2c1
Procedure, shortened: as §1

rosiglitazone = compound: CN(CCOC1=CC=C(C=C1)C[C@H]2C(=O)NC(=O)S2)C3=CC=CC=N3 (racemic) [rosiglitazone]
Procedure, shortened: as §1

[12] = compound: CN1C2=C(C3=C1C(=O)N(N=C3)CC4=CC(=CC=C4)N)SC(=C2)S(=O)C
Procedure, shortened: as §1

[13] = compound: CN1CCC(CNc2ccc3ncc(-c4cccc(OC(F)(F)F)c4)n3n2)CC1
Procedure, shortened: as §1

Measured: log2 fold change

SLC29A1 isoform 2 (UniProt Q99808)
inactive: [1] -0.018 | [2] -0.034 | [3] 0.026 | [4] 0.013 | Nexturastat A -0.035 | vemurafenib -0.007 | [5] 0.015 | [6] -0.002 | givinostat -0.059 | barasertib -0.041 | [7] 0.18 | volasertib -0.044 | [8] -0.07 | epoxomicin -0.029 | [9] 0.068 | [10] -0.01 | [11] 0.006 | rosiglitazone -0.02 | [12] -0.109 | [13] 0.061

SLC25A5 (UniProt P05141)
inactive: [1] 0.023 | [2] -0.004 | [3] -0.007 | [4] -0.011 | Nexturastat A -0.077 | vemurafenib -0.026 | [5] -0.128 | [6] 0.007 | givinostat -0.022 | barasertib 0 | [7] -0.049 | volasertib 0.159 | [8] 0.022 | epoxomicin -0.055 | [9] 0.013 | [10] 0.011 | [11] -0.032 | rosiglitazone 0.013 | [12] -0.06 | [13] 0.1

SLC6A8 (UniProt P48029)
inactive: [1] 0.049 | [2] -0.019 | [3] -0.087 | [4] -0.002 | Nexturastat A -0.01 | vemurafenib 0.026 | [5] -0.08 | [6] -0.047 | givinostat -0.026 | barasertib -0.01 | [7] 0.053 | volasertib 0.092 | [8] -0.12 | epoxomicin -0.007 | [9] -0.068 | [10] -0.154 | [11] 0.077 | rosiglitazone -0.051 | [12] -0.064 | [13] -0.031

Retrieved one by one from above (two):
SLC29A1 isoform 2 (UniProt Q99808)
inactive: [1] -0.018 | [2] -0.034 | [3] 0.026 | [4] 0.013 | Nexturastat A -0.035 | vemurafenib -0.007 | [5] 0.015 | [6] -0.002 | givinostat -0.059 | barasertib -0.041 | [7] 0.18 | volasertib -0.044 | [8] -0.07 | epoxomicin -0.029 | [9] 0.068 | [10] -0.01 | [11] 0.006 | rosiglitazone -0.02 | [12] -0.109 | [13] 0.061

SLC6A8 (UniProt P48029)
inactive: [1] 0.049 | [2] -0.019 | [3] -0.087 | [4] -0.002 | Nexturastat A -0.01 | vemurafenib 0.026 | [5] -0.08 | [6] -0.047 | givinostat -0.026 | barasertib -0.01 | [7] 0.053 | volasertib 0.092 | [8] -0.12 | epoxomicin -0.007 | [9] -0.068 | [10] -0.154 | [11] 0.077 | rosiglitazone -0.051 | [12] -0.064 | [13] -0.031

(next part)

SLC29A2 (UniProt Q14542)
inactive: [1] 0.032 | [2] -0.062 | [3] -0.045 | [4] 0.011 | Nexturastat A -0.045 | vemurafenib -0.013 | [5] -0.084 | [6] -0.064 | givinostat -0.044 | barasertib 0.037 | [7] 0.085 | volasertib 0.083 | [8] -0.024 | epoxomicin -0.009 | [9] -0.084 | [10] -0.177 | [11] -0.014 | rosiglitazone -0.048 | [12] 0.023 | [13] 0.214

SLC33A1 (UniProt O00400)
inactive: [1] 0.018 | [2] -0.053 | [3] -0.023 | [4] 0.013 | Nexturastat A -0.113 | vemurafenib 0.016 | [5] 0.005 | [6] -0.006 | givinostat 0.035 | barasertib 0.01 | [7] 0.064 | volasertib -0.01 | [8] -0.015 | epoxomicin -0.017 | [9] 0.01 | [10] -0.017 | [11] 0.025 | rosiglitazone 0.033 | [12] -0.018 | [13] 0.007

SLC25A17 (UniProt O43808)
inactive: [1] 0.112 | [2] -0.022 | [3] 0.039 | [4] 0.093 | Nexturastat A -0.079 | vemurafenib 0.006 | [5] 0.105 | [6] -0.042 | givinostat -0.019 | barasertib -0.037 | [7] 0.046 | volasertib -0.118 | [8] -0.039 | epoxomicin -0.075 | [9] 0.011 | [10] -0.024 | [11] -0.039 | rosiglitazone 0.017 | [12] -0.024 | [13] 0.18

SLC35B2 (UniProt Q8TB61)
inactive: [1] 0.041 | [2] -0.009 | [3] 0.123 | [4] -0.021 | Nexturastat A 0.011 | vemurafenib -0.056 | [5] 0.058 | [6] -0.011 | givinostat -0.014 | barasertib 0.009 | [7] -0.015 | volasertib -0.059 | [8] -0.04 | epoxomicin 0.004 | [9] 0.03 | [10] 0.014 | [11] 0 | rosiglitazone -0.008 | [12] -0.039 | [13] 0.032

SLC25A21 (UniProt Q9BQT8)
inactive: [1] -0.034 | [2] 0.018 | [3] -0.003 | [4] -0.009 | Nexturastat A -0.047 | vemurafenib -0.054 | [5] -0.034 | [6] -0.1 | givinostat -0.037 | barasertib -0.032 | [7] 0.04 | volasertib 0.049 | [8] -0.069 | epoxomicin -0.022 | [9] 0.026 | [10] 0.013 | [11] -0.034 | rosiglitazone -0.011 | [12] -0.013 | [13] 0.008

SLC25A6 (UniProt P12236)
inactive: [1] 0.001 | [2] 0.031 | [3] 0.011 | [4] -0.022 | Nexturastat A -0.08 | vemurafenib -0.009 | [5] 0.003 | [6] -0.067 | givinostat -0.02 | barasertib -0.028 | [7] 0.017 | volasertib 0.046 | [8] -0.055 | epoxomicin -0.05 | [9] 0.048 | [10] 0.031 | [11] 0.012 | rosiglitazone 0.005 | [12] -0.038 | [13] 0.103

SLC25A4 (UniProt P12235)
active: Nexturastat A -0.228
inactive: [1] 0.041 | [2] 0.029 | [3] 0.073 | [4] 0.017 | vemurafenib -0.028 | [5] -0.02 | [6] -0.032 | givinostat -0.049 | barasertib -0.009 | [7] -0.012 | volasertib 0.06 | [8] -0.024 | epoxomicin 0.009 | [10] 0.037 | [11] -0.053 | [12] -0.038 | [13] -0.001

SLC7A1 (UniProt P30825)
inactive: [1] 0.006 | [2] 0.04 | [3] -0.008 | [4] -0.01 | Nexturastat A -0.052 | vemurafenib 0.009 | [5] 0.007 | [6] -0.036 | givinostat 0.015 | barasertib -0.002 | [7] 0.048 | volasertib -0.059 | [8] -0.068 | epoxomicin -0.001 | [9] 0.011 | [10] 0.046 | [11] 0.001 | rosiglitazone -0.01 | [12] -0.042 | [13] 0.031

SLC25A15 (UniProt Q9Y619)
inactive: [1] -0.041 | [2] 0.069 | [3] 0.009 | [4] -0.006 | Nexturastat A -0.056 | vemurafenib 0.014 | [5] -0.025 | [6] -0.06 | givinostat -0.013 | barasertib 0.013 | [7] 0.017 | volasertib 0.025 | [8] -0.062 | epoxomicin 0.004 | [9] -0.014 | [10] -0.039 | [11] -0.01 | rosiglitazone -0.006 | [12] -0.039 | [13] 0.085

SLC25A11 (UniProt Q02978)
inactive: [1] 0.011 | [2] 0.014 | [3] 0.004 | [4] -0.014 | Nexturastat A -0.023 | vemurafenib -0.016 | [5] 0.044 | [6] -0.055 | givinostat -0.015 | barasertib 0.004 | [7] 0.025 | volasertib 0.063 | [8] -0.05 | epoxomicin 0.01 | [9] 0.003 | [10] -0.011 | [11] -0.033 | rosiglitazone -0.005 | [12] -0.008 | [13] 0.08

SLC25A16 (UniProt P16260)
inactive: [1] -0.025 | [2] 0.002 | [3] -0.098 | [4] 0 | Nexturastat A -0.005 | vemurafenib -0.077 | [5] -0.078 | [6] 0.039 | givinostat -0.008 | barasertib 0.054 | [7] 0.015 | volasertib 0.095 | [8] -0.019 | epoxomicin -0.047 | [9] 0.049 | [10] -0.064 | [11] -0.026 | rosiglitazone -0.014 | [12] -0.059 | [13] -0.143

SLC38A10 (UniProt Q9HBR0)
inactive: [1] -0.078 | [2] 0.03 | [3] 0.081 | [4] -0.014 | Nexturastat A -0.074 | vemurafenib 0.02 | [5] 0.115 | [6] -0.069 | givinostat 0.021 | barasertib 0.058 | [7] 0.022 | volasertib -0.039 | [8] -0.052 | epoxomicin 0.037 | [9] 0.003 | [10] -0.021 | [11] -0.029 | rosiglitazone 0.028 | [12] -0.001 | [13] 0.144

SLC19A1 (UniProt P41440)
inactive: [1] 0.112 | [2] -0.054 | [3] -0.019 | [4] -0.023 | Nexturastat A -0.107 | vemurafenib 0.002 | [5] -0.031 | [6] -0.018 | givinostat 0.007 | barasertib -0.011 | [7] 0.08 | volasertib 0.078 | [8] -0.062 | epoxomicin 0.087 | [10] -0.047 | [11] 0.003 | [12] -0.109 | [13] 0.172
